Assay results reported in article PMC7279416.
No constants are given. Whether binding was seen depends on the method and setting. Binding seen in cells or lysates may run through a third protein. Some binding calls cover weakened binding; strength is not graded here.

The chains behind the UniProt entries cited, without tags or fusion partners. Residues count along the entry.
UniProt P35869, residues 11-848: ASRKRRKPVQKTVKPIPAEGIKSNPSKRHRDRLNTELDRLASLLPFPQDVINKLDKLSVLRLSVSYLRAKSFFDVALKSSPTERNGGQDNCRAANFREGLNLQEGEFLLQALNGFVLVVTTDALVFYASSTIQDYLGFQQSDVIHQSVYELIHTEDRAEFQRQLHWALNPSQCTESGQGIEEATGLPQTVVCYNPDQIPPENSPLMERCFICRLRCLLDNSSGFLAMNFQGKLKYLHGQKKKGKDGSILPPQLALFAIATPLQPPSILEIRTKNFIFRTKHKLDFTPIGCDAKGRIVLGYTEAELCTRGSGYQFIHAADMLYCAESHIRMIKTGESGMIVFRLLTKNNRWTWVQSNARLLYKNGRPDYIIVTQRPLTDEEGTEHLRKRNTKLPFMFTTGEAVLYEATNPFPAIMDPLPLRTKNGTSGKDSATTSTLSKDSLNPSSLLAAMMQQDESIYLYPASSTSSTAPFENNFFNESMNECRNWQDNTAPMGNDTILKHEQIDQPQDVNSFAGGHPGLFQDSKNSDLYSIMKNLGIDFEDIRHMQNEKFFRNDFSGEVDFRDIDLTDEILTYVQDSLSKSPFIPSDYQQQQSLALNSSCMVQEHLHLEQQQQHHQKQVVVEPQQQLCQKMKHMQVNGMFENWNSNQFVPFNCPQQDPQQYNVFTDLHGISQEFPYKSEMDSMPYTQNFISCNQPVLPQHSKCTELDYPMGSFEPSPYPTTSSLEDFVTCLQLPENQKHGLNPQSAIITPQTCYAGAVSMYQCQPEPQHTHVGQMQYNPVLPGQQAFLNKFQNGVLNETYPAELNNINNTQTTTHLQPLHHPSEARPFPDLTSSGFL

Columns and labels:
[1] = molecular target: aryl hydrocarbon receptor (human (endogenous in HeLa, A549, Hep3B, T-47D, MDA-MB-468)) (UniProt P35869); assay: proximity ligation; Duolink in situ kit on methanol-fixed A549, Hep3B, T-47D and MDA-MB-468 cells, with or without CQ; mouse anti-AHR A-3x with rabbit anti-LC3B or rabbit anti-p62
[2] = molecular target: aryl hydrocarbon receptor (human (endogenous in HeLa, A549, Hep3B, T-47D, MDA-MB-468)) (UniProt P35869); assay: proximity ligation; Duolink in situ kit on methanol-fixed wild type and p23 knockdown HeLa cells, with or without 40 uM CQ for 6 h; mouse anti-AHR A-3x with rabbit anti-LC3B or rabbit anti-p62
[3] = molecular target: aryl hydrocarbon receptor (human (endogenous in HeLa, A549, Hep3B, T-47D, MDA-MB-468)) (UniProt P35869); assay: co-IP; 1-2 mg whole-cell lysate of wild type HeLa cells after 40 uM CQ for 6 h; AHR precipitated with anti-AHR monoclonal antibody A-3x and Protein G Dynabeads overnight at 4 °C; 25 mM HEPES pH 7.4, 0.15 M NaCl, 1 mM EDTA, 1 mM DTT, 10% glycerol, 0.05% Tween-20, 1 mg/mL BSA; Western blot for p62

- binding [1]: binds
- binding [2]: binds
- binding [3]: binds
Substance: p62 (from UniProt Q13501 1-440)
